The values below come from article PMC2718704.

Results are given in words; binding and its absence hold for the method and conditions named. In cells and extracts the contact can be indirect. Some results given as binding are weak or reduced against the parent protein; the word gives no strength.

The target in this test is NMDA subtype of glutamate receptors (NMDAr), NR2A-B subunits (rat (endogenous in hippocampus)) (UniProt Q00959+Q00960). The test can be described thus: co-IP; IP with the NMDAR2A&B (anti-NR2A-B) antibody from rat hippocampal extracts; bound fraction on western blots.

Take GRB2 (from UniProt P62994 1-217): the binding entry is given as “binds”.
